# These are yes or no findings as the source states them, for the method shown. Binding seen in cells or lysates may run through a third protein. Some binding calls cover weakened binding; strength is not graded here.
# Amino acid sequences for entries named in this document (tags omitted).
# UniProt P67809: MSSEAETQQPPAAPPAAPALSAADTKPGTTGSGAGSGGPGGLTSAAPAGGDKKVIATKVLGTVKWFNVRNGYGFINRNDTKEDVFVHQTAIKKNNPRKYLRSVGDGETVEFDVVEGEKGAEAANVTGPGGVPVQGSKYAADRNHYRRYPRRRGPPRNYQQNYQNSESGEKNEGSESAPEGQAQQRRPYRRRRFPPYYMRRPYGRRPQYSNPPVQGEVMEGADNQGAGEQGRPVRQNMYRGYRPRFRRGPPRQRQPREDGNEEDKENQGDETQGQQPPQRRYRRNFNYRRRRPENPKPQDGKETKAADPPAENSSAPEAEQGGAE
# B1: T-LAK-originated protein kinase (TOPK), full length, in pBiFC-VC155 (enzyme, UniProt Q96KB5 1-322)
# chain: MEGISNFKTPSKLSEKKKSVLCSTPTINIPASPFMQKLGFGTGVNVYLMKRSPRGLSHSPWAVKKINPICNDHYRSVYQKRLMDEAKILKSLHHPNIVGYRAFTEANDGSLCLAMEYGGEKSLNDLIEERYKASQDPFPAAIILKVALNMARGLKYLHQEKKLLHGDIKSSNVVIKGDFETIKICDVGVSLPLDENMTVTDPEACYIGTEPWKPKEAVEENGVITDKADIFAFGLTLWEMMTLSIPHINLSNDDDDEDKTFDESDFDDEAYYAALGTRPPINMEELDESYQKVIELFSVCTNEDPKDRPSAAHIVEALETDV
# B2: T-LAK-originated protein kinase (TOPK), endogenous in EC cells (enzyme, UniProt Q96KB5 1-322)
# chain: B1 chain
# Assays:
# [1] = biological target: T1, T-LAK-originated protein kinase (TOPK), endogenous in EC cells (human (endogenous in KYSE150 and KYSE30)) (UniProt Q96KB5); experiment: co-IP; endogenous proteins in KYSE150 and KYSE30 lysates (50 mM Tris-HCl pH 7.4, 1 mM EDTA, 1% NP40, 150 mM NaCl); IP with anti-TOPK or anti-YB1 antibody (IgG as control) on protein A/G agarose at 4 °C overnight, Western blot; also done in sgTOPK (TOPK knockout) cells, where the level of YB1 bound with TOPK decreased
# T1 sequence: B1 chain
# [2] = biological target: Y-box binding protein 1 (YB1), full length, in pBiFC-VN173 (UniProt P67809); experiment: split reporter; BiFC in HEK293T cells; TOPK in pBiFC-VC155 and YB1 in pBiFC-VN173 transfected, 48 h, fixed with 4% PFA, imaged by IN Cell Analyzer 6000
# [3] = biological target: Y-box binding protein 1 (YB1), endogenous in EC cells (human (endogenous in KYSE150 and KYSE30)) (UniProt P67809); experiment: co-IP; endogenous proteins in KYSE150 and KYSE30 lysates (50 mM Tris-HCl pH 7.4, 1 mM EDTA, 1% NP40, 150 mM NaCl); IP with anti-TOPK or anti-YB1 antibody (IgG as control) on protein A/G agarose at 4 °C overnight, Western blot; also done in sgTOPK (TOPK knockout) cells, where the level of YB1 bound with TOPK decreased
molecule,measurement,setting,value
"Y-box binding protein 1 (YB1), endogenous in EC cells (from UniProt P67809 1-324)",binding,[1],binds
B1,binding,[2],binds
B2,binding,[3],binds

# From paper PMC10276051
